Measurements: article PMC12040169 (PLOS Biology, 2025)
The other results are listed elsewhere or left out.

Test system: T1, CTL2-GFP (C. trachomatis L2/434/Bu, GFP-expressing)
T1 construct: L2/434/Bu, GFP-expressing
Parameters: species or system HeLa; Intracellular C. trachomatis growth in HeLa cells, bulk GFP fluorescence relative to DMSO
Conditions: bulk GFP, single well; 28.5 h, 10 µM; inhibitor

SMILES	% of control remaining [%]
CC(Cn1cc(Cl)cn1)C(=O)N1CCN(C)CC1c1ccccc1 (stereo not drawn) [CBK282016]	108.844
CCC(CN(C)C)C(=O)c1ccccc1 (stereo not drawn) [CBK015409C]	131.563
Cc1ccn(-c2ccc(N3CCC(OC4CCOCC4)CC3)nn2)n1 [CBK306296]	116.083
O=C(NC(c1ccc(Cl)cc1)c1ccsc1)C1CCN(S(=O)(=O)CC(F)(F)F)CC1 (stereo not drawn) [CBK060088]	102.615
CCOC(=O)N1CCN(CC2CCCCN2)CC1 (stereo not drawn) [CBK022780G]	142.384
Cc1cc(NS(=O)(=O)c2ccc(NC(=O)c3cc4ccccc4o3)cc2)no1 [CBK267597]	126.287
CSc1nc(C)c(CCC(=O)N(C)Cc2c(C)nn(-c3ccccc3)c2C)c(=O)[nH]1 [CBK297925]	146.677
NC(=O)COc1ccc(CNC(=O)CN2CCc3sccc3C2)cc1 [CBK306111]	116.322
Cc1cc2nc(-c3cc(NC(=O)c4cccc([N+](=O)[O-])c4)ccc3O)oc2cc1C [CBK262855]	97.2454
CCCNc1cncc(-c2cccc(CO)c2)n1 [CBK065433]	177.03
CCN(C(=O)Nc1cccnc1Oc1ccc(F)cc1)C1CCOCC1 [CBK306535]	144.406
Cc1ccc2nc(SCC(=O)O)nc(C)c2c1 [CBK265996]	130.193
CS(=O)(=O)Nc1nccnc1N1CCN(Cc2ccc([N+](=O)[O-])cc2)CC1 [CBK084274]	107.411
CC(=O)Nc1ccc(N2CC(C(=O)O)CC2=O)cc1 (stereo not drawn) [CBK287149]	136.264
O=C(CCS(=O)(=O)c1ccccc1)NCc1ccccc1OC1CCNC1 (stereo not drawn) [CBK028296T]	79.9766
CCN(CC)C(=O)c1ccccc1NS(=O)(=O)c1ccc(F)cc1 [CBK045414]	121.463
CC1=CCN(C(=O)c2cccc(S(=O)(=O)NCC3CCCO3)c2)CC1 (stereo not drawn) [CBK304669]	125.897
CC(C)(C)OC(=O)N1CCCC(NCc2ccccn2)CC1 (stereo not drawn) [CBK305128]	108.909
Nc1nc2c(ccn2[C@H]2C[C@@H](O)[C@@H](CO)O2)c(=O)[nH]1 [CBK201238]	123.198
COc1cc(/C=N/c2ccc3oc(-c4ccc(C(C)(C)C)cc4)nc3c2)ccc1OC(=O)c1ccc(Cl)cc1Cl [CBK261238]	98.2163

Rewritten with bars between the fields: entries from further up.
SMILES | % of control remaining [%]
NC(=O)COc1ccc(CNC(=O)CN2CCc3sccc3C2)cc1 [CBK306111] | 116.322
Nc1nc2c(ccn2[C@H]2C[C@@H](O)[C@@H](CO)O2)c(=O)[nH]1 [CBK201238] | 123.198

Going on with the list.

SMILES	% of control remaining [%]
CCCN1CCC(CNC(=O)c2cc3ccc(OC)cc3n2C)CC1 [CBK282542]	121.302
Cc1ccc(CN(c2ccc(C(=O)O)cc2)S(C)(=O)=O)cc1 [CBK287203]	138.607
NC(=O)CN1CCC(Oc2cncc(OCc3ccc(Cl)c(Cl)c3)n2)C1 (stereo not drawn) [CBK084429]	92.4722
Cn1nc(C2CCN(C(=O)CC3CCCC3)CC2)c2cccnc21 [CBK284943]	132.085
CCCCNS(=O)(=O)c1ccc(Cl)c(Cl)c1 [CBK044309]	132.818
Nc1nonc1N/N=C/c1ccccc1F [CBK028838]	98.7526
COc1ccc(CCCC(=O)N2CCC(c3c(C(N)=O)sc4ccccc34)C2)cc1C (stereo not drawn) [CBK285848]	128.082
CCCCc1cc(C[C@@H]2C[C@H](NC(=O)N3CCOCC3)C2(C)C)no1 [CBK289257]	150.663
Cc1ccccc1C(=O)NCC(=O)Nc1ccc2cc(Br)cnc2n1 [CBK063312]	90.9583
O=C(c1cccs1)N1CCN(Cc2cc(=O)n3ccsc3n2)CC1 [CBK305872]	96.3317
O=C(CCc1ccncc1)N1CCCCC1CN1CCCCCC1 (stereo not drawn) [CBK282102]	135.884
CC(C)(C)C(=O)NC1(C(F)(F)F)N=C(c2ccccc2)NC1=O (stereo not drawn) [CBK267475]	163.011
CCc1c(C)sc(NC(=O)C2CCC2)c1C(=O)NCc1cccnc1 [CBK307414]	92.5834
CCc1ccc(Oc2c[nH]nc2-c2ccc(OCc3cnn(-c4ccccc4)c3)cc2O)cc1 [CBK266233]	122.989
COc1ccc(-c2cc(C(=O)NCCc3c[nH]c4ccccc34)cnc2-c2ccc(F)cc2)cn1 [CBK036649]	201.84
O=C(Nc1ccc2[nH]ccc2c1)c1ccc(F)c(F)c1 [CBK159683]	190.695
COc1cc(C(=O)Nc2cc(-c3nc4ncccc4o3)ccc2C)ccc1OCc1ccc(Cl)cc1 [CBK264704]	113.076
COc1ccc(CC(=O)N2CCNC(=O)C2Cc2ccccc2-c2ccccc2)cc1OC (stereo not drawn) [CBK285827]	129.358
Clc1cc(-c2cnc3ccccc3n2)c(Cl)s1 [CBK006186]	116.549
